# Test results reported in US20030232419A1, “Molecules interacting with CASL (MICAL) polynucleotides, polypeptides, and methods of using the same” (priority 2002, published 2003).
# Results are given in words; binding and its absence hold for the method and conditions named. Binding calls can cover weak binding; strength is not graded here.
# What was measured:
# [1] = target: terminal "C2" portion of the Drosophila PlexA cytoplasmic domain (amino acids 1702-1945) (Drosophila); test: yeast interaction assay (FIG. 5B legend)
# [2] = target: terminal "C2" portion of the Drosophila PlexA cytoplasmic domain (amino acids 1702-1945) (Drosophila); test: yeast two-hybrid, Plexin A C2 as bait, β-galactosidase assay
binding [1],binding [2],Binder
binds,binds,"clone 23 (C-terminal fragment of Drosophila MICAL from the yeast two-hybrid screen) (protein, not shown: large carriers) NSRYRKQTNTAKPKPESFSSSSPQLYIHKPHHLAAAHPSALDDQTPPPIPPLPLNYQRSDDESYANETREHKKQRAISKASRQAELKRLRIAQEIQREQEEIEVQLKDLEARGVLIEKALRGEAQNIENLDATKDNDEKLLKELLEIWRNITALKKRDEELTIRQQELQLEYRHAQLKEELNLRLSCNKLDKSSADVAAEGAILNEMLEIVAKRAALRPTASQLDLTAAGSASTSAEATGIKLTGQPHDHEESII"
binds,binds,"clone 151 (C-terminal fragment of Drosophila MICAL from the yeast two-hybrid screen) (protein, not shown: large carriers) NSRYRKQTNTAKPKPESFSSSSPQLYIHKPHHLAAAHPSALDDQTPPPIPPLPLNYQRSDDESYANETREHKKQRAISKASRQAELKRLRIAQEIQREQEEIEVQLKDLEARGVLIEKALRGEAQNIENLDATKDNDEKLLKELLEIWRNITALKKRDEELTIRQQELQLEYRHAQLKEELNLRLSCNKLDKSSADVAAEGAILNEMLEIVAKRAALRPTASQLDLTAAGSASTSAEATGIKLTGQPHDHEESII"
